Source: publication PMC13423804
Results are given in words; binding and its absence hold for the method and conditions named. Some binding calls cover weakened binding; strength is not graded here. Where a sequence is shown, tags or fusion partners need not be part of it. Each block holds one molecule with its values, some of them ahead of it.

Amino acid sequences for entries named in this document (tags omitted).
UniProt P0A9A6: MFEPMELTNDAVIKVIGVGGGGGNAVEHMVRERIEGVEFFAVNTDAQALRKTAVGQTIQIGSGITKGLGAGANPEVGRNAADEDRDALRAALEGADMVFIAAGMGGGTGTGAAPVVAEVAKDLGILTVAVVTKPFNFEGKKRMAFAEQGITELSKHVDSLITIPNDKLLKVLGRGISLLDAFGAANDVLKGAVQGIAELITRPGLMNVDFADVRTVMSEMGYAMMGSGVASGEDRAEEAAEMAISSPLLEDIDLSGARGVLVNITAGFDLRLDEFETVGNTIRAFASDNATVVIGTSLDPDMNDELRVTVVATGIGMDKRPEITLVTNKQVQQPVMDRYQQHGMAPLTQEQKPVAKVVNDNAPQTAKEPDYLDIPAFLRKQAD

Key:
FtsA (E. coli) = molecular target: T1, FtsA (E. coli) (UniProt P0ABH0); assay: TIRF microscopy of FtsZ recruitment by FtsA to supported lipid bilayers (competition); FtsA (0.4 μM) and Alexa Fluor 488-labelled FtsZ (1.25 μM) self-organised on supported lipid bilayers in 50 mM Tris-HCl pH 7.4, 150 mM KCl, 5 mM MgCl2 with 4 mM ATP and 4 mM GTP; Cy5-labelled His-tagged peptide (0.4 μM) added during imaging; FtsZ signal at the membrane followed as a proxy; both purified
T1 sequence: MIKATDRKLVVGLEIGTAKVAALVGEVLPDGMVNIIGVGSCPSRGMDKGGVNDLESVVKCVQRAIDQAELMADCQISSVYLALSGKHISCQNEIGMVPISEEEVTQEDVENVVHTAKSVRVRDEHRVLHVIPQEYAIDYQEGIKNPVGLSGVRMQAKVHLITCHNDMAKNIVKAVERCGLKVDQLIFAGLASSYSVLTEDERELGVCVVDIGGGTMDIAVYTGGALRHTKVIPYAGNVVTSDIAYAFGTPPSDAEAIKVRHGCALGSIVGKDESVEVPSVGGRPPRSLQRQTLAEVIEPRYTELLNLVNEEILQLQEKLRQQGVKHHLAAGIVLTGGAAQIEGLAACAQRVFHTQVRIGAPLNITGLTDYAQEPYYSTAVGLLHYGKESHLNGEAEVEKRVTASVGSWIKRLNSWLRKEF

[1] = molecular target: T2, ^N-pepPBP1b–GFP–H3H4 fusion (α, 1–63, M46L) (E. coli) (UniProt P02919); assay: two-hybrid; POLAR two-hybrid assay in E. coli cells: peptide–GFP–H3H4 bait on a heterologous PopZ focus (0.2% L-arabinose), mScarlet–FtsA prey (250 µM IPTG), LB, 30 °C, fluorescence microscopy
T2 sequence: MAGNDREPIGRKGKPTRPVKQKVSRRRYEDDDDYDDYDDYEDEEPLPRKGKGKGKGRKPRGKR

binding (FtsA (E. coli)): binds
Molecule: Alexa Fluor 488-labelled FtsZ (from UniProt P0A9A6 1-383)

binding (FtsA (E. coli)): binds
B1: ^N-pepPBP1b (residues 1–64) peptide with N-terminal 6× His tag and C-terminal cysteine, Cy5-labelled (peptide, UniProt P02919 1-64)
peptide: MAGNDREPIGRKGKPTRPVKQKVSRRRYEDDDDYDDYDDYEDEEPMPRKGKGKGKGRKPRGKRGC
modifications: sulfo-cyanine5 (Cy5) maleimide on the added C-terminal cysteine

binding [1]: binds
B2: mScarlet–FtsA fusion (protein, UniProt P0ABH0 1-420)
chain: T1 sequence
